{"source": "patent US20090054312A1", "about": "“SMIPs: Small molecule inhibitors of p27 depletion in cancers and other proliferative diseases” (priority 2007, published 2009)", "tested_on": "p27 stability in LNCaP-S14 cells", "experiment": "p27 stability, cycloheximide chase in LNCaP-S14 cells", "format": "cell-based, human", "conditions": "18 h pretreatment (SMIP 40 μM, MG132 20 μM), CHX 100 μg/ml; vehicle 2.36 h", "note": "Some entries share one result that the patent states for a list of compounds. Where a SMILES comes first, the peptide text is derived from it. The star is where a group is joined. Cbz = O=C(OCc1ccccc1)*"}
{"molecule": "CC(C)C[C@@H](C=O)NC(=O)[C@H](CC(C)C)NC(=O)[C@H](CC(C)C)NC(=O)OCc1ccccc1", "note": "[MG132, reference compound] (Cbz-Leu-Leu-Leu-aldehyde)", "values": [{"measurement": "half-life of p27", "value": "greater than 6 h"}]}
